These are yes or no findings as the source states them, for the method shown. Some results given as binding are weak or reduced against the parent protein; the word gives no strength.

Chains of the proteins cited; added tags and fusions are not shown. Residues count along the entry.
UniProt P9WNK7, residues 6-25: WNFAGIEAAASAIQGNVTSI

The assay addresses synthetic peptide E20 corresponding to residues 6–25 of ESAT-6 (Mycobacterium tuberculosis) (UniProt P9WNK7). The experiment in a line: fibril formation followed by electron microscopy + thioflavin T binding; […] (10 mM Tris, 1 mM EDTA, 25 mM DTT), […]; both purified.

In the case of “synthetic peptide E20 corresponding to residues 6–25 of ESAT-6 (from UniProt P9WNK7 6-25)”, the binding result is on record as “binds”.

The values are drawn from paper PMC2494559.
